Test results reported in article PMC3460868.
No signal at the amounts used counts as a negative. For some assays here: At least one verdict rests on a figure or table, not on a statement of the authors. For some assays here: Construct, isoform or probe ends are uncertain for at least one entry.

Protein sequences, listed by entry. Tags and fused reporters are not part of them. Lines headed by an entry give the natural chain unless they say otherwise; changes in a name come on top.
UniProt P0A8V6: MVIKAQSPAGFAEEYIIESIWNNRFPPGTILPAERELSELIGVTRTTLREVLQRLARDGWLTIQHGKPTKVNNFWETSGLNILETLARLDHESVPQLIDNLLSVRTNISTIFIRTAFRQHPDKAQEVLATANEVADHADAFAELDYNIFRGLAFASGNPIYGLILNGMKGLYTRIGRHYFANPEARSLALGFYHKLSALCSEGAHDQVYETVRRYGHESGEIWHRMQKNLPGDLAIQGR
UniProt P0ACJ8: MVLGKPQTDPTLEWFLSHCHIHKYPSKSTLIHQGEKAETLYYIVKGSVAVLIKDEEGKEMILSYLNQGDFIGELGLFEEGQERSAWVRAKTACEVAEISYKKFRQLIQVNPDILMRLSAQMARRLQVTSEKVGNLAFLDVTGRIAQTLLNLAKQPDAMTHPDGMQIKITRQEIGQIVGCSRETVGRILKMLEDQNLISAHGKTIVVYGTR

Assays:
[1] = biological target: FadR (Escherichia coli) (UniProt P0A8V6); assay: EMSA; conditions: oleoyl-CoA (25-50 uM in text, 50 pmol in 10 ul in legend); Roche binding buffer (composition not given), 15 min, room temperature; CRP: 0.6 pmol probe in 20 ul (legend; Methods say 0.1 or 0.2 pmol), 5-20 pmol protein; recombinant protein; protein details: His6 (pET28); label: DIG-ddUTP 3' (terminal transferase)
[2] = biological target: CRP (Escherichia coli) (UniProt P0ACJ8); assay: EMSA; conditions: no cAMP; Roche binding buffer (composition not given), 15 min, room temperature; CRP: 0.6 pmol probe in 20 ul (legend; Methods say 0.1 or 0.2 pmol), 5-20 pmol protein; recombinant protein; residues 1-210; protein details: His6 (pET28); label: DIG-ddUTP 3' (terminal transferase)

Sequence	binding result [1]	binding result [2]
GTAATTATCAAGCTGGTATGATGAGTTAATATTATG (double strand) [fadD FadR site 1]	no binding	–
GCAACATTCCAGCTGGTCCGACCTATACTCTCGCC (double strand) [fadL FadR site 1]	no binding	–
GTAACCTGGATAAAACGCGACAAGCGTCGCATCCGGCGTTATCACCGG (double strand) [fadH CRP site 1 (probe 1)]	–	no binding
GTAAAGATAAAAATAAATAGTGACGCGCTTCGCAACCTTTTCGTTGGG (double strand) [fadD CRP site]	–	no binding
CTCTCGCCACTGGTCTGATTTCTAAGATGTACCTC (double strand) [fadL FadR site 2]	no binding	–
CACCGGGCGTATTCTTTTTGAATCCCATCACAAACCCCGCACTCC (double strand) [fadH CRP site 2 (probe 2)]	–	no binding
CCCTACACTTCGCGCTCCTGTTACAGCACGTAACATAGTTTGTATAAAAATAAATC (double strand) [fadL CRP site 2 (probe 2)]	–	no binding
GAAACAGCGGCTGGTCCGCTGTTTCTGCATTCT (double strand) [fadD FadR site 2]	no binding	–
